Publication doi:10.1101/2023.02.07.527441
These are yes or no findings as the source states them, for the method shown.

Target: E. coli DsbA (E. coli) (UniProt P0AEG4)
Experiment: SEC

binding: no binding (tested: 1.25 mg ml^-1)
B1: E. coli DsbA (enzyme, UniProt P0AEG4 20-208)
chain: AQYEDGKQYTTLEKPVAGAPQVLEFFSFFCPHCYQFEEVLHISDNVKKKLPEGVKMTKYHVNFMGGDLGKDLTQAWAVAMALGVEDKVTVPLFEGVQKTQTIRSASDIRDVFINAGIKGEEYDAAWNSFVVKSLVAQQEKAAADVQLRGVPAMFVNGKYQLNPQGMDTSNMDVFVQQYADTVKYLSEKK
